Values from PubChem BioAssay AID1224830 (NIAID, 2016)

- Test: 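Regulators of TLR4 signalling towards TNF-alpha in macrophage-like cells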 (primary screen)
- Cells: human THP-1 monocytic leukaemia cells, TNF dual-luciferase reporter clone, PMA-differentiated to macrophage-like cells
- Reagent: siRNA pool against human genes, 50 nM
- Duration: LPS for 4 h, given about 3 days after siRNA transfection
- Treatment: bacterial LPS (TLR4 ligand), 10 ng/ml
- Detection: 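TNF firefly reporter luminescence divided by renilla, normalised to the plate median, then turned into a robust z-score for each replicate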
- Scale: TNF reporter robust z-score: higher = stronger TNF reporter response to LPS
- Rule for the call: 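Each well counts as active if its z-score is over 2.8 or under -1.5; controls are left without a call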
In all, the deposit lists about 18,000 reagents; shown is an unselected part. About 2,900 of all reagents (16%) were called active. 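Calls are made per well; low scores hint the gene aids the LPS response, high scores that it dampens it.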 Repeated entries: four replicate wells of each siRNA pool. No sequences are given here.

With CLSTN3, how do the results read?
TNF reporter robust z-score: 1.18; Outcome: inactive

How did the screen score CLSTN3?
TNF reporter robust z-score: 1.16; Outcome: inactive

What did the screen give for CLSTN3?
TNF reporter robust z-score: 0.05; Outcome: inactive

With CLSTN3, how do the results read?
TNF reporter robust z-score: -0.95; Outcome: inactive

With HASPIN, what was measured?
TNF reporter robust z-score: 1.63; Outcome: inactive

What is on record for HASPIN?
TNF reporter robust z-score: 1.5; Outcome: inactive

Which result is listed for HASPIN?
TNF reporter robust z-score: 0.89; Outcome: inactive

For HASPIN, how do the results read?
TNF reporter robust z-score: 1.76; Outcome: inactive

How did the screen score RPAP3?
TNF reporter robust z-score: -1.68; Outcome: active

What did the screen give for RPAP3?
TNF reporter robust z-score: -1.49; Outcome: inactive

What is on record for RPAP3?
TNF reporter robust z-score: -1.57; Outcome: active

With PTPRT, what does the deposit list?
TNF reporter robust z-score: 2.04; Outcome: inactive

How did the screen score PTPRT?
TNF reporter robust z-score: -0.66; Outcome: inactive

For PTPRT, what does the deposit list?
TNF reporter robust z-score: -0.01; Outcome: inactive

For PTPRT, what was measured?
TNF reporter robust z-score: 1.25; Outcome: inactive

For TVP23B, how do the results read?
TNF reporter robust z-score: -0.27; Outcome: inactive

Which result is listed for TVP23B?
TNF reporter robust z-score: 0.24; Outcome: inactive

With TVP23B, how do the results read?
TNF reporter robust z-score: -0.74; Outcome: inactive

Which result is listed for TVP23B?
TNF reporter robust z-score: -0.65; Outcome: inactive

5 neighbouring records already listed, quoted:
CLSTN3 | TNF reporter robust z-score = 0.05; Outcome = inactive
CLSTN3 | TNF reporter robust z-score = -0.95; Outcome = inactive
HASPIN | TNF reporter robust z-score = 1.63; Outcome = inactive
HASPIN | TNF reporter robust z-score = 1.5; Outcome = inactive
HASPIN | TNF reporter robust z-score = 0.89; Outcome = inactive

Continued:
For RCHY1, how do the results read?
TNF reporter robust z-score: -1.1; Outcome: inactive

For RCHY1, what does the deposit list?
TNF reporter robust z-score: 0.9; Outcome: inactive

Which result is listed for RCHY1?
TNF reporter robust z-score: 0.08; Outcome: inactive

What is on record for KNL1?
TNF reporter robust z-score: -0.85; Outcome: inactive

For KNL1, what was measured?
TNF reporter robust z-score: -0.08; Outcome: inactive

For KNL1, how do the results read?
TNF reporter robust z-score: -0.4; Outcome: inactive

Which result is listed for KNL1?
TNF reporter robust z-score: 2.79; Outcome: inactive

How did the screen score PLEKHM1?
TNF reporter robust z-score: -0.41; Outcome: inactive

Which result is listed for PLEKHM1?
TNF reporter robust z-score: 0.37; Outcome: inactive

What is on record for PLEKHM1?
TNF reporter robust z-score: -1.02; Outcome: inactive

For PLEKHM1, what does the deposit list?
TNF reporter robust z-score: -0.89; Outcome: inactive

With ITGB6, how do the results read?
TNF reporter robust z-score: -0.32; Outcome: inactive

How did the screen score ITGB6?
TNF reporter robust z-score: -0.49; Outcome: inactive

With ITGB6, what does the deposit list?
TNF reporter robust z-score: -1.12; Outcome: inactive

What is on record for ITGB6?
TNF reporter robust z-score: 1.04; Outcome: inactive
